Results taken from PMC12065913.
Results are given in words; binding and its absence hold for the method and conditions named. Some binding calls cover weakened binding; strength is not graded here. Blank lines part the entries; values can stand above or below the binder they belong to.

Sequences of proteins named here, by UniProt entry; tags and fusion partners are left off.
UniProt P0A6Y8: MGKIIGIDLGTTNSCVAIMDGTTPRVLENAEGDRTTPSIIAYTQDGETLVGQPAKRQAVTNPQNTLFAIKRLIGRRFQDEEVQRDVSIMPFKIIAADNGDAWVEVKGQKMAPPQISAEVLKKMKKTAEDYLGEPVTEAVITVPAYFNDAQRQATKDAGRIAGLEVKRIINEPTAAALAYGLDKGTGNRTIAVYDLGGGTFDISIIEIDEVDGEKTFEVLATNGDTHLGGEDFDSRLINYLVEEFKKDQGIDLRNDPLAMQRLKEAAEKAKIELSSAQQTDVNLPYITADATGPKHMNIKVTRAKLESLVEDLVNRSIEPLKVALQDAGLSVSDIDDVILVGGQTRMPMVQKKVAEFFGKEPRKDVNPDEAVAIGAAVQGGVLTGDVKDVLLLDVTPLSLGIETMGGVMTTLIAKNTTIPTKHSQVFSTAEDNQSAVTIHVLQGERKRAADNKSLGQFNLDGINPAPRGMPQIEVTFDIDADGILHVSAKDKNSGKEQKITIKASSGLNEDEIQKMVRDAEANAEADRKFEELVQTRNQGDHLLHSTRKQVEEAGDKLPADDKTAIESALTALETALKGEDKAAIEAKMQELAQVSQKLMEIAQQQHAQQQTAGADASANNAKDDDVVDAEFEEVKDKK
UniProt P0A850: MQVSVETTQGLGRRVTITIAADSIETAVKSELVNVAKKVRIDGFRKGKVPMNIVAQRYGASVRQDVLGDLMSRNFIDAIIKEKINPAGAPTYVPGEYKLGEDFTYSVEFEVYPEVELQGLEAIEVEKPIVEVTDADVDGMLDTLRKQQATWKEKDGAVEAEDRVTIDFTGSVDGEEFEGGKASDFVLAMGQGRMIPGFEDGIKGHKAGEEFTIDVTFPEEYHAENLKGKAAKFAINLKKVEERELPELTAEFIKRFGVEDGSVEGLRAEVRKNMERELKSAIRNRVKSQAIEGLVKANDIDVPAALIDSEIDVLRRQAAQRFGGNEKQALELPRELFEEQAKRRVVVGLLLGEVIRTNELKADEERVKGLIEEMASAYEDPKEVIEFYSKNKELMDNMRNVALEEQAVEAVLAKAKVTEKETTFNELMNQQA

Columns and labels:
[1] = target: DnaK (E. coli (endogenous in MC4100)) (UniProt P0A6Y8); experiment: selective ribosome profiling (immunoprecipitation of chaperone-bound ribosome-nascent chain complexes, sequencing of the mRNA footprints); DnaK immunoprecipitated with anti-DnaK antibody on Dynabeads from ATP-depleted (hexokinase) lysate after MNase digest and sucrose cushion; selected translatome normalised by the total translatome
[2] = target: Trigger Factor (tig-TEV-Avi) (E. coli) (UniProt P0A850); experiment: selective ribosome profiling (SeRP); affinity purification of TF-TEV-Avi with ribosome-nascent chain complexes from E. coli lysate, no chemical cross-linking; ribosome footprints sequenced, enrichment over the total translatome

binding [1]: binds
B1: nascent UvrA (protein, UniProt P0A698 1-940)
chain: MDKIEVRGARTHNLKNINLVIPRDKLIVVTGLSGSGKSSLAFDTLYAEGQRRYVESLSAYARQFLSLMEKPDVDHIEGLSPAISIEQKSTSHNPRSTVGTITEIHDYLRLLFARVGEPRCPDHDVPLAAQTVSQMVDNVLSQPEGKRLMLLAPIIKERKGEHTKTLENLASQGYIRARIDGEVCDLSDPPKLELQKKHTIEVVVDRFKVRDDLTQRLAESFETALELSGGTAVVADMDDPKAEELLFSANFACPICGYSMRELEPRLFSFNNPAGACPTCDGLGVQQYFDPDRVIQNPELSLAGGAIRGWDRRNFYYFQMLKSLADHYKFDVEAPWGSLSANVHKVVLYGSGKENIEFKYMNDRGDTSIRRHPFEGVLHNMERRYKETESSAVREELAKFISNRPCASCEGTRLRREARHVYVENTPLPAISDMSIGHAMEFFNNLKLAGQRAKIAEKILKEIGDRLKFLVNVGLNYLTLSRSAETLSGGEAQRIRLASQIGAGLVGVMYVLDEPSIGLHQRDNERLLGTLIHLRDLGNTVIVVEHDEDAIRAADHVIDIGPGAGVHGGEVVAEGPLEAIMAVPESLTGQYMSGKRKIEVPKKRVPANPEKVLKLTGARGNNLKDVTLTLPVGLFTCITGVSGSGKSTLINDTLFPIAQRQLNGATIAEPAPYRDIQGLEHFDKVIDIDQSPIGRTPRSNPATYTGVFTPVRELFAGVPESRARGYTPGRFSFNVRGGRCEACQGDGVIKVEMHFLPDIYVPCDQCKGKRYNRETLEIKYKGKTIHEVLDMTIEEAREFFDAVPALARKLQTLMDVGLTYIRLGQSATTLSGGEAQRVKLARELSKRGTGQTLYILDEPTTGLHFADIQQLLDVLHKLRDQGNTIVVIEHNLDVIKTADWIVDLGPEGGSGGGEILVSGTPETVAECEASHTARFLKPML

binding [2]: binds
B2: nascent TldD (protein, UniProt P0AGG8 1-481)
chain: MSLNLVSEQLLAANGLKHQDLFAILGQLAERRLDYGDLYFQSSYHESWVLEDRIIKDGSYNIDQGVGVRAISGEKTGFAYADQISLLALEQSAQAARTIVRDSGDGKVQTLGAVEHSPLYTSVDPLQSMSREEKLDILRRVDKVAREADKRVQEVTASLSGVYELILVAATDGTLAADVRPLVRLSVSVLVEEDGKRERGASGGGGRFGYEFFLADLDGEVRADAWAKEAVRMALVNLSAVAAPAGTMPVVLGAGWPGVLLHEAVGHGLEGDFNRRGTSVFSGQVGELVASELCTVVDDGTMVDRRGSVAIDDEGTPGQYNVLIENGILKGYMQDKLNARLMGMTPTGNGRRESYAHLPMPRMTNTYMLPGKSTPQEIIESVEYGIYAPNFGGGQVDITSGKFVFSTSEAYLIENGKVTKPVKGATLIGSGIETMQQISMVGNDLKLDNGVGVCGKEGQSLPVGVGQPTLKVDNLTVGGTA

binding [2]: binds
B3: nascent AmiA (protein, UniProt P36548 35-289)
chain: KDELLKTSNGHSKPKAKKSGGKRVVVLDPGHGGIDTGAIGRNGSKEKHVVLAIAKNVRSILRNHGIDARLTRSGDTFIPLYDRVEIAHKHGADLFMSIHADGFTNPKAAGASVFALSNRGASSAMAKYLSERENRADEVAGKKATDKDHLLQQVLFDLVQTDTIKNSLTLGSHILKKIKPVHKLHSRNTEQAAFVVLKSPSVPSVLVETSFITNPEEERLLGTAAFRQKIATAIAEGVISYFHWFDNQKAHSKKR

binding [2]: binds
B4: nascent RibD (protein, UniProt P25539 1-367)
chain: MQDEYYMARALKLAQRGRFTTHPNPNVGCVIVKDGEIVGEGYHQRAGEPHAEVHALRMAGEKAKGATAYVTLEPCSHHGRTPPCCDALIAAGVARVVASMQDPNPQVAGRGLYRLQQAGIDVSHGLMMSEAEQLNKGFLKRMRTGFPYIQLKLGASLDGRTAMASGESQWITSPQARRDVQLLRAQSHAILTSSATVLADDPALTVRWSELDEQTQALYPQQNLRQPIRIVIDSQNRVTPVHRIVQQPGETWFARTQEDSREWPETVRTLLIPEHKGHLDLVVLMMQLGKQQINSIWVEAGPTLAGALLQAGLVDELIVYIAPKLLGSDARGLCTLPGLEKLADAPQFKFKEIRHVGPDVCLHLVGA

binding [2]: binds
B5: nascent PheT (protein, UniProt P07395 1-795)
chain: MKFSELWLREWVNPAIDSDALANQITMAGLEVDGVEPVAGSFHGVVVGEVVECAQHPNADKLRVTKVNVGGDRLLDIVCGAPNCRQGLRVAVATIGAVLPGDFKIKAAKLRGEPSEGMLCSFSELGISDDHSGIIELPADAPIGTDIREYLKLDDNTIEISVTPNRADCLGIIGVARDVAVLNQLPLVQPEIVPVGATIDDTLPITVEAPEACPRYLGRVVKGINVKAPTPLWMKEKLRRCGIRSIDAVVDVTNYVLLELGQPMHAFDKDRIEGGIVVRMAKEGETLVLLDGTEAKLNADTLVIADHNKALAMGGIFGGEHSGVNDETQNVLLECAFFSPLSITGRARRHGLHTDASHRYERGVDPALQHKAMERATRLLIDICGGEAGPVIDITNEATLPKRATITLRRSKLDRLIGHHIADEQVTDILRRLGCEVTEGKDEWQAVAPSWRFDMEIEEDLVEEVARVYGYNNIPDEPVQASLIMGTHREADLSLKRVKTLLNDKGYQEVITYSFVDPKVQQMIHPGVEALLLPSPISVEMSAMRLSLWTGLLATVVYNQNRQQNRVRIFESGLRFVPDTQAPLGIRQDLMLAGVICGNRYEEHWNLAKETVDFYDLKGDLESVLDLTGKLNEVEFRAEANPALHPGQSAAIYLKGERIGFVGVVHPELERKLDLNGRTLVFELEWNKLADRVVPQAREISRFPANRRDIAVVVAENVPAADILSECKKVGVNQVVGVNLFDVYRGKGVAEGYKSLAISLILQDTSRTLEEEEIAATVAKCVEALKERFQASLRD

binding [1]: binds
B6: nascent UvrB (protein, UniProt P0A8F8 1-673)
chain: MSKPFKLNSAFKPSGDQPEAIRRLEEGLEDGLAHQTLLGVTGSGKTFTIANVIADLQRPTMVLAPNKTLAAQLYGEMKEFFPENAVEYFVSYYDYYQPEAYVPSSDTFIEKDASVNEHIEQMRLSATKAMLERRDVVVVASVSAIYGLGDPDLYLKMMLHLTVGMIIDQRAILRRLAELQYARNDQAFQRGTFRVRGEVIDIFPAESDDIALRVELFDEEVERLSLFDPLTGQIVSTIPRFTIYPKTHYVTPRERIVQAMEEIKEELAARRKVLLENNKLLEEQRLTQRTQFDLEMMNELGYCSGIENYSRFLSGRGPGEPPPTLFDYLPADGLLVVDESHVTIPQIGGMYRGDRARKETLVEYGFRLPSALDNRPLKFEEFEALAPQTIYVSATPGNYELEKSGGDVVDQVVRPTGLLDPIIEVRPVATQVDDLLSEIRQRAAINERVLVTTLTKRMAEDLTEYLEEHGERVRYLHSDIDTVERMEIIRDLRLGEFDVLVGINLLREGLDMPEVSLVAILDADKEGFLRSERSLIQTIGRAARNVNGKAILYGDKITPSMAKAIGETERRREKQQKYNEEHGITPQGLNKKVVDILALGQNIAKTKAKGRGKSRPIVEPDNVPMDMSPKALQQKIHELEGLMMQHAQNLEFEEAAQIRDQLHQLRELFIAAS

binding [1]: binds
B7: nascent RpoH (protein, UniProt P0AGB3 1-284)
chain: MTDKMQSLALAPVGNLDSYIRAANAWPMLSADEERALAEKLHYHGDLEAAKTLILSHLRFVVHIARNYAGYGLPQADLIQEGNIGLMKAVRRFNPEVGVRLVSFAVHWIKAEIHEYVLRNWRIVKVATTKAQRKLFFNLRKTKQRLGWFNQDEVEMVARELGVTSKDVREMESRMAAQDMTFDLSSDDDSDSQPMAPVLYLQDKSSNFADGIEDDNWEEQAANRLTDAMQGLDERSQDIIRARWLDEDNKSTLQELADRYGVSAERVRQLEKNAMKKLRAAIEA

binding [1]: binds
B8: nascent YhjK (protein, UniProt P37649 1-662)
chain: MRVSRSLTIKQMAMVAAVVLVFVFIFCTVLLFHLVQQNRYNTATQLESIARSVREPLSSAILKGDIPEAEAILASIKPAGVVSRADVVLPNQFQALRKSFIPERPVPVMVTRLFELPVQISLGVYSLERPANPQPIAYLVLQADSFRMYKFVMSTLSTLVTIYLLLSLILTVAISWCINRLILHPLRNIARELNAIPAKELVGHQLALPRLHQDDEIGMLVRSYNLNQQLLQRHYEEQNENAMRFPVSDLPNKALLMEMLEQVVARKQTTALMIITCETLRDTAGVLKEAQREILLLTLVEKLKSVLSPRMILAQISGYDFAVIANGVQEPWHAITLGQQVLTIMSERLPIERIQLRPHCSIGVAMFYGDLTAEQLYSRAISAAFTARHKGKNQIQFFDPQQMEAAQKRLTEESDILNALENHQFAIWLQPQVEMTSGKLVSAEVLLRIQQPDGSWDLPDGLIDRIECCGLMVTVGHWVLEESCRLLAAWQERGIMLPLSVNLSALQLMHPNMVADMLELLTRYRIQPGTLILEVTESRRIDDPHAAVAILRPLRNAGVRVALDDFGMGYAGLRQLQHMKSLPIDVLKIDKMFVEGLPGDSSMIAAIIMLAQSLNLQMIAEGVETEAQRDWLAKAGVGIAQGFLFARPLPIEIFEESYLEEK

binding [2]: binds
B9: nascent TrpD (protein, UniProt P00904 1-531)
chain: MADILLLDNIDSFTYNLADQLRSNGHNVVIYRNHIPAQTLIERLATMSNPVLMLSPGPGVPSEAGCMPELLTRLRGKLPIIGICLGHQAIVEAYGGYVGQAGEILHGKASSIEHDGQAMFAGLTNPLPVARYHSLVGSNIPAGLTINAHFNGMVMAVRHDADRVCGFQFHPESILTTQGARLLEQTLAWAQQKLEPANTLQPILEKLYQAQTLSQQESHQLFSAVVRGELKPEQLAAALVSMKIRGEHPNEIAGAATALLENAAPFPRPDYLFADIVGTGGDGSNSINISTASAFVAAACGLKVAKHGNRSVSSKSGSSDLLAAFGINLDMNADKSRQALDELGVCFLFAPKYHTGFRHAMPVRQQLKTRTLFNVLGPLINPAHPPLALIGVYSPELVLPIAETLRVLGYQRAAVVHSGGMDEVSLHAPTIVAELHDGEIKSYQLTAEDFGLTPYHQEQLAGGTPEENRDILTRLLQGKGDAAHEAAVAANVAMLMRLHGHEDLQANAQTVLEVLRSGSAYDRVTALAARG

binding [2]: binds
B10: nascent PurF (protein, UniProt P0AG16 1-505)
chain: MCGIVGIAGVMPVNQSIYDALTVLQHRGQDAAGIITIDANNCFRLRKANGLVSDVFEARHMQRLQGNMGIGHVRYPTAGSSSASEAQPFYVNSPYGITLAHNGNLTNAHELRKKLFEEKRRHINTTSDSEILLNIFASELDNFRHYPLEADNIFAAIAATNRLIRGAYACVAMIIGHGMVAFRDPNGIRPLVLGKRDIDENRTEYMVASESVALDTLGFDFLRDVAPGEAIYITEEGQLFTRQCADNPVSNPCLFEYVYFARPDSFIDKISVYSARVNMGTKLGEKIAREWEDLDIDVVIPIPETSCDIALEIARILGKPYRQGFVKNRYVGRTFIMPGQQLRRKSVRRKLNANRAEFRDKNVLLVDDSIVRGTTSEQIIEMAREAGAKKVYLASAAPEIRFPNVYGIDMPSATELIAHGREVDEIRQIIGADGLIFQDLNDLIDAVRAENPDIQQFECSVFNGVYVTKDVDQGYLDFLDTLRNDDAKAVQRQNEVENLEMHNEG
